Publication PMC4964976
No constants are given. Whether binding was seen depends on the method and setting. In cells and extracts the contact can be indirect. Binding calls can cover weak binding; strength is not graded here.

Biological target: T1, pyocin S2 immunity protein (P. aeruginosa (strain not stated)) (UniProt Q06579)
T1 sequence: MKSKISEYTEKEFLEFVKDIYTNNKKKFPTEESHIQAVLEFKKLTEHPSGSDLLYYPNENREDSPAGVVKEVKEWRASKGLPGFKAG
Test: co-purification (nickel affinity + size exclusion chromatography); pyocin and immunity protein co-expressed in E. coli BL21(DE3)pLysS, His6 tag on the immunity protein only; HisTrap in 20 mM Tris/HCl, 500 mM NaCl, pH 7.5, 20-500 mM imidazole gradient, then Superdex S200 or S75 in 50 mM Tris/HCl, 200 mM NaCl, pH 7.5

pyocin S2Δ318 (from UniProt Q06584) (domain or fragment)
binding: binds
